No constants are given. Whether binding was seen depends on the method and setting.
Biological target: GST-V0d1 (rat) (UniProt Q5M7T6)
Assay: SPR; GST-V0d1 and GST amine-coupled on consecutive flow cells; V0c (50 nM, with or without 2 µM soluble GST-V0d1), V0c L1.2s or V0c L3.4s injected; 25 °C; GST signal subtracted; both purified

Sequences of proteins named here, by UniProt entry; tags and fusion partners are left off. A change or cut given only in a name is not applied to a line headed by its entry.
UniProt Q5M7T6: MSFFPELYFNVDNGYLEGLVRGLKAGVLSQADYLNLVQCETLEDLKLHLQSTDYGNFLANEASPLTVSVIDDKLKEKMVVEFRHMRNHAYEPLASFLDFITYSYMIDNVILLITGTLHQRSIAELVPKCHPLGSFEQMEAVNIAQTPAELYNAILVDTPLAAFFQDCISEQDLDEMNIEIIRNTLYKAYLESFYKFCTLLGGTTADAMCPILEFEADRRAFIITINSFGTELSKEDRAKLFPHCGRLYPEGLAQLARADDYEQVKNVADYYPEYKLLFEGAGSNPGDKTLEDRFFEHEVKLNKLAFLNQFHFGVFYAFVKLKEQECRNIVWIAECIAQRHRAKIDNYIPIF
UniProt P63081: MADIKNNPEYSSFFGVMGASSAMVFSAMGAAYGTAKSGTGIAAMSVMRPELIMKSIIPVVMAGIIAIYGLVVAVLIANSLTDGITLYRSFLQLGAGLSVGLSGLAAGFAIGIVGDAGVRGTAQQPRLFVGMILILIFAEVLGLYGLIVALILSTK

## Full-length V0c-L1.2s mutant (V0c with scrambled loop 1.2) (from UniProt P63081)
  binding: no binding (tested: 50 nM)

— article PMC10001230, “A Role for the V0 Sector of the V-ATPase in Neuroexocytosis: Exogenous V0d Blocks Complexin and SNARE Interactions with V0c” (Cells, 2023)
